These are yes or no findings as the source states them, for the method shown. In cells and extracts the contact can be indirect. Some results given as binding are weak or reduced against the parent protein; the word gives no strength.
Target: Forkhead Box P1 (FOXP1), endogenous in C2C12 (mouse (endogenous in C2C12)) (UniProt P58462)
Assay: co-IP; nuclear lysates of C2C12 myocytes differentiated by serum withdrawal (48 hr in the text, 3 days in the legend), mild nonionic detergent; precipitated with anti-FOXP1 Ab, blotted with anti-MyoD Ab

By UniProt entry, the sequences of proteins in these tests, tags left out.
UniProt P58462: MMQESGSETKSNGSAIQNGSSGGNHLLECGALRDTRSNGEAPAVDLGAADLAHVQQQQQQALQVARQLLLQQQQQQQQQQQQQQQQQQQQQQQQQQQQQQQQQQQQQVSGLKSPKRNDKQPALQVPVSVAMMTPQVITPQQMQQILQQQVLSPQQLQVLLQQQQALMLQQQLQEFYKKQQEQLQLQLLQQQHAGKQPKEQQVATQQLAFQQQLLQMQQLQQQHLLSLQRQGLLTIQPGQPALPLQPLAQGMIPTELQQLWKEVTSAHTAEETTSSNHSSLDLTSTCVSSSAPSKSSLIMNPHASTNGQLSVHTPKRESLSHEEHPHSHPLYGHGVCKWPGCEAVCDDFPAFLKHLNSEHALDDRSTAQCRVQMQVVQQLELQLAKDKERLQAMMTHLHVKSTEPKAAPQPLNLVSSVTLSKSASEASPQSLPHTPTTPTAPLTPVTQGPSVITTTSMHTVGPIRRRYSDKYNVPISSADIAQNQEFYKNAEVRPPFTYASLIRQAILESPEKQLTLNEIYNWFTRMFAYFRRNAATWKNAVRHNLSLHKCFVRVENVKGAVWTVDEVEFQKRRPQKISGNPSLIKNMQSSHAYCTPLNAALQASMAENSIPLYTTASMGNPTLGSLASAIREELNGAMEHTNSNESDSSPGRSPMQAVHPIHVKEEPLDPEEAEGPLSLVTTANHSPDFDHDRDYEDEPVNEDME
UniProt P10085: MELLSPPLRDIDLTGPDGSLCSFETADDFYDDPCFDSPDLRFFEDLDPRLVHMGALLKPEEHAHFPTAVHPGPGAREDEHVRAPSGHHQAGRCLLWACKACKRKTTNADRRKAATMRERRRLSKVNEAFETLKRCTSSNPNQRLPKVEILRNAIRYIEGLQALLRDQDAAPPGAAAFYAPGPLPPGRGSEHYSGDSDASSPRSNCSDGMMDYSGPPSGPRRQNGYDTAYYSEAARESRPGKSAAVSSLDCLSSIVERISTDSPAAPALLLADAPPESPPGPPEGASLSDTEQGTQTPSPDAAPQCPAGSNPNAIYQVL

binding: binds
Substance: Myoblast Determination protein 1 (MYOD1/MyoD), endogenous in C2C12 (from UniProt P10085 1-318)

— paper PMC7861563, “FOXP1 Interacts with MyoD to Repress its Transcription and Myoblast Conversion” (Journal of cellular signaling, 2021)
